# These are yes or no findings as the source states them, for the method shown. Some binding calls cover weakened binding; strength is not graded here.
# The chains behind the UniProt entries cited, without tags or fusion partners. Where a name states a change or a piece, a line headed by the entry shows the natural chain unless it says otherwise.
# UniProt Q99558: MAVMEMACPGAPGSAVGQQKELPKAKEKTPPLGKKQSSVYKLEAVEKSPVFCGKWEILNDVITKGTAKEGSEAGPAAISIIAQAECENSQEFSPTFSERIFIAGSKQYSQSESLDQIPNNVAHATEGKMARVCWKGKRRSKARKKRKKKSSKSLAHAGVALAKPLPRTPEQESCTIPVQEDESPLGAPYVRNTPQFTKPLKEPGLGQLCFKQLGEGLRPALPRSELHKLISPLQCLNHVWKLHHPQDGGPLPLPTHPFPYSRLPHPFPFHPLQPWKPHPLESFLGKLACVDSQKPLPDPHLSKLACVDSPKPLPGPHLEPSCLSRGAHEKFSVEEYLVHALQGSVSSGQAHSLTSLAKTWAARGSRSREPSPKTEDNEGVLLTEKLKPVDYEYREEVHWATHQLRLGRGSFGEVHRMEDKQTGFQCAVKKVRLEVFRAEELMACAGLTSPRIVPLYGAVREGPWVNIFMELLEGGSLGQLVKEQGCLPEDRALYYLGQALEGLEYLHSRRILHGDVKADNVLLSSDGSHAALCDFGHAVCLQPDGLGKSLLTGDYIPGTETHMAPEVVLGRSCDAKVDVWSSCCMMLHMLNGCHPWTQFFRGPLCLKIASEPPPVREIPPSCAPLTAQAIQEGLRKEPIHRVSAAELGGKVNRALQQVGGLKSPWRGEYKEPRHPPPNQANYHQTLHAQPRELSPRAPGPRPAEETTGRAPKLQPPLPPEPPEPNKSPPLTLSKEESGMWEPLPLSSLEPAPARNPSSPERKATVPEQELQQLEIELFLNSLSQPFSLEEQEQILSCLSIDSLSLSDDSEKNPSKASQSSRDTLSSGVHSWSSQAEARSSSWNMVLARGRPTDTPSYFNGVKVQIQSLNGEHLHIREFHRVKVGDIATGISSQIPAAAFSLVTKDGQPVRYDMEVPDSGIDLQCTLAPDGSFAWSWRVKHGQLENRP
# How the values were obtained:
# TRAF2 [1] = target: T1, TRAF2 (UniProt Q12933); assay: yeast two-hybrid, NIK as bait, Traf2 as prey, beta-gal assay
# T1 sequence (looked up): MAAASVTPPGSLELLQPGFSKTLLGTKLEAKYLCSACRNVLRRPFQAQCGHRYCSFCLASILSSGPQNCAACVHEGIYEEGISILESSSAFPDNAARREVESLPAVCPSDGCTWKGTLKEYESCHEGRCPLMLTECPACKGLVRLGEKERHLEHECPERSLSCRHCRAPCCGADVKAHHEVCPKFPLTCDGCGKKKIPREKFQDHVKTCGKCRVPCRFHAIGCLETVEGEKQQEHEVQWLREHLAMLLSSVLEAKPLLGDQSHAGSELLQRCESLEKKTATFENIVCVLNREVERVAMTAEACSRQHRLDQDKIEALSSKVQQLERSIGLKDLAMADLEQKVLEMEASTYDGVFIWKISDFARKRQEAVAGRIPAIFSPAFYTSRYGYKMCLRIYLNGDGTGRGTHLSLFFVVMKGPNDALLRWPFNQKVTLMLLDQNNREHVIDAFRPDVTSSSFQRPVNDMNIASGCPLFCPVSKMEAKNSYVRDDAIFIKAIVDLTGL
# TRAF2 [2] = target: T1, TRAF2; assay: yeast two-hybrid, NIK construct as bait, Traf2 as prey, beta-gal assay
Substance,binding (TRAF2 [1]),binding (TRAF2 [2])
"NF-κB-inducing kinase, NIK (MAP3K14), full length (from UniProt Q99558 1-947) (enzyme)",binds,–
NIK624-947 (C-terminal domain of NIK) (from UniProt Q99558 624-947) (enzyme),–,binds

# Source: patent US20050272633A1
